Results on two substances are retold here after publication PMC4074151.

Chains of the proteins cited; added tags and fusions are not shown. Lines headed by an entry give the natural chain unless they say otherwise; changes in a name come on top. A line that says so, or that is headed by a name, gives the form on record, which may keep a tag or linker. Residues count along the entry.
UniProt P55854, residues 1-92: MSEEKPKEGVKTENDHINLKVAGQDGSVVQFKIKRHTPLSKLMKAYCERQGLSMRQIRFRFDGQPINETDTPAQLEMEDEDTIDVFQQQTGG
UniProt P63165, residues 1-97: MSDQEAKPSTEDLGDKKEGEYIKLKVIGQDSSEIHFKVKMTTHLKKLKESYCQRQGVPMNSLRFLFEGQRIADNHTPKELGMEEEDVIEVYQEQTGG
UniProt P00441: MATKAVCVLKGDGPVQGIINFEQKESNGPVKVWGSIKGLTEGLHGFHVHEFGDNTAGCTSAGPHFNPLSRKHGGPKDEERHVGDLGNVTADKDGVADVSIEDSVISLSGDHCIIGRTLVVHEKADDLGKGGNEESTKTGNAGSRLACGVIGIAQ
FLAG-tagged G93R-SOD1 (superoxide dismutase 1, familial ALS-linked mutant G93R) (P00441, form named): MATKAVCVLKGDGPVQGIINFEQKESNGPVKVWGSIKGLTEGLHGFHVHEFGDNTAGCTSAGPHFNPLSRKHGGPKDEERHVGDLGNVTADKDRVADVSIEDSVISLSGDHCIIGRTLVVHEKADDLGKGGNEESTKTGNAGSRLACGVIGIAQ

Results are given in words; binding and its absence hold for the method and conditions named. Binding seen in cells or lysates may run through a third protein. Some results given as binding are weak or reduced against the parent protein; the word gives no strength.

Experiment [1] addresses HA-tagged SUMO3 (small ubiquitin-like modifier 3) (human) (UniProt P55854). Nature of the experiment: co-IP; NSC34 cells cotransfected with FLAG-tagged SOD1 (G93R or wild type), HA-tagged SUMO1/3 or vector, and myc-tagged Ubc9; lysates in RIPA buffer with 10 mM N-ethylmaleimide; immunoprecipitated with anti-HA antibody (M180-3, MBL); immunoblot with HRP-conjugated anti-FLAG.

Experiment [2] concerns the target HA-tagged SUMO1 (small ubiquitin-like modifier 1) (UniProt P63165). Described as above.

As for “FLAG-tagged G93R-SOD1 (superoxide dismutase 1, familial ALS-linked mutant G93R) (from UniProt P00441 1-154)”, the binding entry in experiment [1] is on record as “binds”. For the substance “FLAG-tagged wild-type SOD1 (superoxide dismutase 1) (from UniProt P00441 1-154)”, the binding result in experiment [2] and in experiment [1] was “no binding” each time.
